This is one part of the list.
Tests used:
Experiment in all cases: log2 fold change, soluble protein after heating vs DMSO (PISA); higher = thermal stabilisation; K562 lysate, 10 uM; active = over 0.2 and 3.5 SD of the protein, either way, in both replicates (recomputed)
erlotinib = compound: C#Cc1cccc(Nc2ncnc3cc(OCCOC)c(OCCOC)cc23)c1 [erlotinib]
Method in brief: (§1)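 Pellets of K562 cells were dounce-homogenised in PBS pH 7.4 with 1 mM MgCl2, and the crude extract was held at 1 mg/mL protein for a 30 min treatment with 10 μM compound. Aliquots were heated for 3 min over 48°C-58°C and pooled before NP-40 was added to 0.5% at 4°C. The supernatant from 21,000xg for 90 min was quantified by TMTpro 16plex LC-MS/MS with channel sums equalised. Values are reported from duplicates as log-two fold change in thermal stability relative to solvent controls.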

Protein sequences, listed by entry. Tags and fused reporters are not part of them. Lines headed by an entry give the natural chain unless they say otherwise; changes in a name come on top.
UniProt Q8NHU6: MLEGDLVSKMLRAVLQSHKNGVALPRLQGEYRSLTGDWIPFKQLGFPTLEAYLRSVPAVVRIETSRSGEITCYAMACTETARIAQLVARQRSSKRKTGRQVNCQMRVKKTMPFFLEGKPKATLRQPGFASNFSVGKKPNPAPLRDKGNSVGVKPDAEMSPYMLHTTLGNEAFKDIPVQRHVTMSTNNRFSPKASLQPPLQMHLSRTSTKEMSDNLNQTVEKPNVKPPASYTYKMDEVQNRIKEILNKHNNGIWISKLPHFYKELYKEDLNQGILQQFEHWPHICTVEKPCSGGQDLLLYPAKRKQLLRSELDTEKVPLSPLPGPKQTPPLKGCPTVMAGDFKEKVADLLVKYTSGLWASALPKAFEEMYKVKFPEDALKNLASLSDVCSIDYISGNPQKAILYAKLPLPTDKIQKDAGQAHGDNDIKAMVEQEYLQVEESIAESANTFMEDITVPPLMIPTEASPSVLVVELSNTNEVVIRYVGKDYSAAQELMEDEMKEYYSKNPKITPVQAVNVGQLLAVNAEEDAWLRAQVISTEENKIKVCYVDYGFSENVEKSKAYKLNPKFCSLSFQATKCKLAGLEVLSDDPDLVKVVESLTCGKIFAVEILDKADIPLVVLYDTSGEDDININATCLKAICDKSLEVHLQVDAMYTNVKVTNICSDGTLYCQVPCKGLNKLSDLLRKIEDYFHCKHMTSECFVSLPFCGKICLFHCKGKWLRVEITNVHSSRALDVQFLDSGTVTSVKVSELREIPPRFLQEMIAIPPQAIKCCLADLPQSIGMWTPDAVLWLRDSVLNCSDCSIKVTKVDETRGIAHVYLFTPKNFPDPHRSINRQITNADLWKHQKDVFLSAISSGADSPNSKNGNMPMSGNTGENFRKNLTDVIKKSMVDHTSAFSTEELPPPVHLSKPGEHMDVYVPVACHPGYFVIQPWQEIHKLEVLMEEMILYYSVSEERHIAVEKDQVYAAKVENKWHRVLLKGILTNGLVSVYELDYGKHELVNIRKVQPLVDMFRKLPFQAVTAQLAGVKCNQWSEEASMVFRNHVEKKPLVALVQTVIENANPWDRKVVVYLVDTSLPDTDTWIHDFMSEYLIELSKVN
UniProt Q15633: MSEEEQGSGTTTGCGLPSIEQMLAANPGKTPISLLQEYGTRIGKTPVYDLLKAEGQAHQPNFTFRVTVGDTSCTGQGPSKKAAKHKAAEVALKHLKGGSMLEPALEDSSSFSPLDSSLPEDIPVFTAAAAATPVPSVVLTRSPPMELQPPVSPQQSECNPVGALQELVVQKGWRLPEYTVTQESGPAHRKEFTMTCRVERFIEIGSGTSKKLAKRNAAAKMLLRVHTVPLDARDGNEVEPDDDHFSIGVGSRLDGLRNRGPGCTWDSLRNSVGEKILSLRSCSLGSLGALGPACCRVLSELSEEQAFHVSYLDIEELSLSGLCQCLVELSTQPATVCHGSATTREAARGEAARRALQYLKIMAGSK
UniProt Q15562, whole entry, looked up: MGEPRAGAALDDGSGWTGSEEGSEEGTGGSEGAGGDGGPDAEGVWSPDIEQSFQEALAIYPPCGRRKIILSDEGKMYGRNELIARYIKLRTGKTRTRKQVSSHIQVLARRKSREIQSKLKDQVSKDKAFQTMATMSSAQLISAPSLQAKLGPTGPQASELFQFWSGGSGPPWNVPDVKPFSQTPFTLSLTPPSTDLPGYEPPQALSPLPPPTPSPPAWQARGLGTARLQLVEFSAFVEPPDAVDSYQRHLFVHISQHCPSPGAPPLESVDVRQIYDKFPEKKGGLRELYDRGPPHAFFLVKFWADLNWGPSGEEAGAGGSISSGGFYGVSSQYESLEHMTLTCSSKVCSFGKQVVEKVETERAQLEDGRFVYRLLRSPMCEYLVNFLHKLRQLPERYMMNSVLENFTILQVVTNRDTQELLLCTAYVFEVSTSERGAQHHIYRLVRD
UniProt Q5QJ74: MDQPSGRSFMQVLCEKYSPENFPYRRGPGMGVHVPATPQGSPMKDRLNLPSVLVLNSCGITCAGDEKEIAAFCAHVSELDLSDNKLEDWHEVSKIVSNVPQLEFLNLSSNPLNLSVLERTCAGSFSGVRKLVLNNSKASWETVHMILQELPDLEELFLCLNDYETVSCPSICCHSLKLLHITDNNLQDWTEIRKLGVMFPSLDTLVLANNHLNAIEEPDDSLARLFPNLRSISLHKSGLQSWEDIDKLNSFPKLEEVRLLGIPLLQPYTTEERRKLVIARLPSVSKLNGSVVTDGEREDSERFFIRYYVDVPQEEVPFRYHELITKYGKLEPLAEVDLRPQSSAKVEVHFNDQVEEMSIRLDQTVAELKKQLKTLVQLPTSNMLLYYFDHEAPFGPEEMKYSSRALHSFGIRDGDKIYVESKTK
UniProt Q9C0B7: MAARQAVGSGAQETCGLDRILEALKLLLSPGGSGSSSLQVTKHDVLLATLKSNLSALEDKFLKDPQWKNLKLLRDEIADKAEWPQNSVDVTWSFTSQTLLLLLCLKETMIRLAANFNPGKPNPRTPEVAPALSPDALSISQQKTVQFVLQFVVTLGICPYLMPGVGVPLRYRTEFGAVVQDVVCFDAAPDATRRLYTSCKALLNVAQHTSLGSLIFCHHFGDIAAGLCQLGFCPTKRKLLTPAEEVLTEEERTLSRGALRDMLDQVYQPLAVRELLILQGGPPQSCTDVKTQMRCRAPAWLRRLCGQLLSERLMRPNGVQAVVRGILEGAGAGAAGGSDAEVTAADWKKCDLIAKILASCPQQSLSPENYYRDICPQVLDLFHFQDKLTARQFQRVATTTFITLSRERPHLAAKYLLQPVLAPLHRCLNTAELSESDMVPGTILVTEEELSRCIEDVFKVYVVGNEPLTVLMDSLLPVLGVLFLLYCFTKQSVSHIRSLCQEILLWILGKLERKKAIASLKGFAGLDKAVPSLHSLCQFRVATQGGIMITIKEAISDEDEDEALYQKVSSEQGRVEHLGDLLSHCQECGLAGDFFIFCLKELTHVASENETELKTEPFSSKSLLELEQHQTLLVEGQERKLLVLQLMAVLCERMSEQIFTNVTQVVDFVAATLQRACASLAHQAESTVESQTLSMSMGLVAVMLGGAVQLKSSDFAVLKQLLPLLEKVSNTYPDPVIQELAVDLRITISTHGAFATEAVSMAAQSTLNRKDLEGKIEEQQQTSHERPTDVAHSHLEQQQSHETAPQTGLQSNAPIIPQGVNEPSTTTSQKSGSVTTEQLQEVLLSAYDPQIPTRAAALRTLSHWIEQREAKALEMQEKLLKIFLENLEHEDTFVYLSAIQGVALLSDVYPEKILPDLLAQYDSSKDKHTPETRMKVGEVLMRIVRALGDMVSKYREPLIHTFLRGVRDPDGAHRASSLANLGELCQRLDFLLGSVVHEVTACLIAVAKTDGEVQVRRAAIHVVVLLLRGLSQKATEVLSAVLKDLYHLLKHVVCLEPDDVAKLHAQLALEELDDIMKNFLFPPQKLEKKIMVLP
UniProt Q6ICL3: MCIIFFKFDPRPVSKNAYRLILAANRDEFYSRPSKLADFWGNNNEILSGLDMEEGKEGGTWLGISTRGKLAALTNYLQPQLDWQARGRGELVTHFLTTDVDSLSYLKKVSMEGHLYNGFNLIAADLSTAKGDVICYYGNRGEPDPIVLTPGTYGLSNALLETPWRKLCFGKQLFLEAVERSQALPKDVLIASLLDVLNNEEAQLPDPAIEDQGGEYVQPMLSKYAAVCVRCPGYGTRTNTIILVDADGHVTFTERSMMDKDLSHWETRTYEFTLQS
UniProt Q8WUA7: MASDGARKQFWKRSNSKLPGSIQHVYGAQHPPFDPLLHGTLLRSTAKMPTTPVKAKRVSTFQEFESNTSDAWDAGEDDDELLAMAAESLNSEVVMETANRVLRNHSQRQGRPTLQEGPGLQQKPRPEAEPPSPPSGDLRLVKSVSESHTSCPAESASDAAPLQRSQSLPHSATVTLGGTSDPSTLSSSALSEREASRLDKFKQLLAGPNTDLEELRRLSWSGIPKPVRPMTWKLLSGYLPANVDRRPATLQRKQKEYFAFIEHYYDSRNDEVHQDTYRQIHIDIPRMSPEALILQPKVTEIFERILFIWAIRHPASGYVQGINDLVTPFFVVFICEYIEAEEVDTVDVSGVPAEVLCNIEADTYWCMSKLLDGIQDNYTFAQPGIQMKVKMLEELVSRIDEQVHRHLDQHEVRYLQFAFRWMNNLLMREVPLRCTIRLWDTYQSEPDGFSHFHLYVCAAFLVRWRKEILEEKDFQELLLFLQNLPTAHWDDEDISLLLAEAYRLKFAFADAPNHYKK
UniProt O60347: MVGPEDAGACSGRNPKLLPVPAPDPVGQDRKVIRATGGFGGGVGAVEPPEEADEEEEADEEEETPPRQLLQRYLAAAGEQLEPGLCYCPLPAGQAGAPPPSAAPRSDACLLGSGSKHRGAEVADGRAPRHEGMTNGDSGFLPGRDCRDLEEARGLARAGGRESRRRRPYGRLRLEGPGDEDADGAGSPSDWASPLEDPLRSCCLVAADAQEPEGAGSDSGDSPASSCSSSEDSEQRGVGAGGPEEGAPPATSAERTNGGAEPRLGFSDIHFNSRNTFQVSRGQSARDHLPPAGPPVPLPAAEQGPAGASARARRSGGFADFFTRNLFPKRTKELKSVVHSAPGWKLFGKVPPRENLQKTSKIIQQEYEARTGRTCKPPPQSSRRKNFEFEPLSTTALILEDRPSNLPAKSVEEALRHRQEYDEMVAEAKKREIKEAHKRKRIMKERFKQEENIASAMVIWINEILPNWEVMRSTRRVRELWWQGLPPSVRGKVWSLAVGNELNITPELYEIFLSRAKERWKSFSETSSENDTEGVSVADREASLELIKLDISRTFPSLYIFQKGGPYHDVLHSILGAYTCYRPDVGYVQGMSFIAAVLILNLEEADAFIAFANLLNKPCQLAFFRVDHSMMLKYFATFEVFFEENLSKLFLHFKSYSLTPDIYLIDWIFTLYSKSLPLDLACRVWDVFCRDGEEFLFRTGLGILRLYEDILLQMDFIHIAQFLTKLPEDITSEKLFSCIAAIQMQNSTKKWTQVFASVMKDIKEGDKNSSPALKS
UniProt Q13428: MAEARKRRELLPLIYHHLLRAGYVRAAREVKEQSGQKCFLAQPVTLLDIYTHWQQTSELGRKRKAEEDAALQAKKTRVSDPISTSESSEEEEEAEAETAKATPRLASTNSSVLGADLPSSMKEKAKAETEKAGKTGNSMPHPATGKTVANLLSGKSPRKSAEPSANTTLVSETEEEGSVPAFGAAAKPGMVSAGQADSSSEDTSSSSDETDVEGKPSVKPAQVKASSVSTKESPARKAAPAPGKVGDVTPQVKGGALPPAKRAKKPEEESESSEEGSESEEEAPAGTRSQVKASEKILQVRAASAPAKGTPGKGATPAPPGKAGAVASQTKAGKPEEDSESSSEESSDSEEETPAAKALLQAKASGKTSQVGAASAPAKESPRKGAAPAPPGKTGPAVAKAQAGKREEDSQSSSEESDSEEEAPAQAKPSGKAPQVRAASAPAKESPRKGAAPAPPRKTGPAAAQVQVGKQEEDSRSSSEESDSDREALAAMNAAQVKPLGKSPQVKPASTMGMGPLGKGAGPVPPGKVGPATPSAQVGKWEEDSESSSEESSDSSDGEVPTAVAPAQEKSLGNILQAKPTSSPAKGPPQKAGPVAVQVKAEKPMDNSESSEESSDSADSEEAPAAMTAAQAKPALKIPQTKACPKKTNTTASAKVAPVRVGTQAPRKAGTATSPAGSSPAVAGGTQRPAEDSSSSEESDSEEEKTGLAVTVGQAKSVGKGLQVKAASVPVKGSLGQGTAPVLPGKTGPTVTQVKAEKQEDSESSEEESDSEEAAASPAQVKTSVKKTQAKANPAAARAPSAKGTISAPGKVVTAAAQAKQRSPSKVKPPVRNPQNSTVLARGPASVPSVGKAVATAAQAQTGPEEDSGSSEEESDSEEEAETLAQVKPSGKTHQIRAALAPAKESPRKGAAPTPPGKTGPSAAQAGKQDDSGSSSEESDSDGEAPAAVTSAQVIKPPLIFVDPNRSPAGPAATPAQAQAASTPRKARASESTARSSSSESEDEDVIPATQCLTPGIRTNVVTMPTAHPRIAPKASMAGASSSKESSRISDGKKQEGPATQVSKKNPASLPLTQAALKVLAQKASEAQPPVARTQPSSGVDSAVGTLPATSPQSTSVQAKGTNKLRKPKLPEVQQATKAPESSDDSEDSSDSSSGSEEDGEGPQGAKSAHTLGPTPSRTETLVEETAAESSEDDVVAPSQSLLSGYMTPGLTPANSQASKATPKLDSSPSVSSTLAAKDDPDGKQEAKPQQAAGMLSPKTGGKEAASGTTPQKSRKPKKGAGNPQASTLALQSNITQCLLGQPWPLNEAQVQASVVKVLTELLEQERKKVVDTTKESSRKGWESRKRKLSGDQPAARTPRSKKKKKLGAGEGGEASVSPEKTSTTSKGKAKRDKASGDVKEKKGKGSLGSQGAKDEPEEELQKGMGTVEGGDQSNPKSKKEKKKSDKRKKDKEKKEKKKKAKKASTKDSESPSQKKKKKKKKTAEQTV
UniProt Q9UHQ7: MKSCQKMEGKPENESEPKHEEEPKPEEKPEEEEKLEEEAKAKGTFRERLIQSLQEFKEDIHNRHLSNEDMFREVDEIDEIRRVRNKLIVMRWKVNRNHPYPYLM

[1] = compound: C/C(=N\NC(=O)C1=CC(=CC=C1)S(=O)(=O)N2CCOCC2)/C3=C(C=CC(=C3)Cl)O
Method in brief: as §1

[2] = compound: C1=CC(=CC=C1C2=NC3=C(N2)C=C(C=C3)C(=O)N)OC4=CC=C(C=C4)Cl
Method in brief: as §1

[3] = compound: C1=CC2=C(C=CC(=C2)/C=C\3/C(=O)NC(=NCC4=CC=CS4)S3)N=C1
Method in brief: as §1

[4] = compound: C1=CC2=NC=CN=C2C=C1/C=C/3\C(=O)NC(=O)S3
Method in brief: as §1

[5] = compound: C1=CC=C(C=C1)C2=NC(=C(N2)C3=CC=NC=C3)C4=CC(=C(C=C4)Cl)O
Method in brief: as §1

[6] = compound: C1=CC=C2C(=C1)C3=NNC4=CC=CC(=C43)C2=O
Method in brief: as §1

[7] = compound: C1CCN(C1)C(=O)NC2=CC=CC(=C2)NC3=NC=C(C(=N3)NCCC4=CN=CN4)Br
Method in brief: as §1

[8] = compound: C1CN(CCC1(CC2=CC=C(C=C2)Cl)N)C3=NC=NC4=C3C=CN4
Method in brief: as §1

IRAK-1-4 Inhibitor I = compound: C1COCCN1CCN2C3=CC=CC=C3N=C2NC(=O)C4=CC(=CC=C4)[N+](=O)[O-] [IRAK-1-4 Inhibitor I]
Method in brief: as §1

Measured: log2 fold change

TDRD7 (UniProt Q8NHU6)
inactive: erlotinib 0.027 | [1] 0.084 | [2] 0.043 | [3] 0.019 | [4] 0.019 | [5] 0.024 | [6] -0.015 | [7] -0.005 | [8] 0.055 | IRAK-1-4 Inhibitor I -0.006

TEAD4 (UniProt Q15561)
inactive: erlotinib 0.028 | [2] 0.025 | [4] 0.058

TAZ (UniProt Q16635)
inactive: erlotinib -0.062 | [2] 0.12

TBL1X (UniProt O60907)
inactive: erlotinib 0.011 | [1] 0.04 | [2] 0.025 | [3] 0.033 | [4] -0.03 | [5] -0.044 | [6] 0.013 | [7] -0.001 | [8] 0.003 | IRAK-1-4 Inhibitor I -0.059

TARBP2 (UniProt Q15633)
inactive: erlotinib 0.03 | [1] -0.095 | [2] -0.066 | [3] -0.026 | [4] 0.007 | [5] 0.027 | [6] -0.029 | [7] 0.012 | [8] -0.002 | IRAK-1-4 Inhibitor I 0.011

TEAD2 isoform 4 (UniProt Q15562)
inactive: erlotinib 0.322 | [1] 0.093 | [2] 0.11 | [3] -0.342 | [6] -0.114

TATDN1 isoform 2 (UniProt Q6P1N9)
inactive: erlotinib -0.06 | [1] 0.049 | [2] 0.076 | [3] -0.038 | [4] -0.004 | [5] 0.022 | [6] -0.036 | IRAK-1-4 Inhibitor I 0.061

TCF12 isoform 3 (UniProt Q99081)
inactive: erlotinib -0.001 | [1] -0.025 | [2] 0.081 | [3] 0.006 | [4] -0.004 | [5] -0.017 | [6] 0.003 | [7] -0.063 | [8] 0.006 | IRAK-1-4 Inhibitor I 0.051

TBC1D13 (UniProt Q9NVG8)
inactive: erlotinib 0 | [1] 0.014 | [2] 0.018 | [3] 0.012 | [4] -0.001 | [5] 0 | [6] 0.015 | [7] -0.011 | [8] 0.024 | IRAK-1-4 Inhibitor I 0.015

TBCEL (UniProt Q5QJ74)
inactive: erlotinib 0.198 | [1] 0.306 | [2] 0.138 | [3] 0.061 | [4] 0.542 | [5] -0.178 | [6] -0.1 | IRAK-1-4 Inhibitor I 0.15

TES (UniProt Q9UGI8)
inactive: erlotinib 0.001 | [1] -0.011 | [2] 0.033 | [3] -0.032 | [4] -0.022 | [5] 0.007 | [6] 0 | [7] -0.006 | [8] 0.03 | IRAK-1-4 Inhibitor I -0.002

TDRD15 (UniProt B5MCY1)
inactive: erlotinib -0.096 | [1] -0.026 | [2] 0.021 | [3] -0.016 | [5] 0.025 | [6] -0.064 | [7] -0.056 | [8] 0.026 | IRAK-1-4 Inhibitor I -0.013

TANGO6 (UniProt Q9C0B7)
inactive: erlotinib 0.045 | [1] -0.04 | [2] 0.012 | [3] -0.011 | [4] 0.009 | [5] -0.049 | [6] -0.048 | [7] 0.007 | [8] 0.023 | IRAK-1-4 Inhibitor I 0.048

TCP1 (UniProt P17987)
inactive: erlotinib 0.007 | [1] 0.004 | [2] 0.011 | [3] -0.007 | [4] -0.009 | [5] 0.005 | [6] 0.018 | [7] 0.002 | [8] -0.01 | IRAK-1-4 Inhibitor I 0.009

TBC1D25 (UniProt Q3MII6)
inactive: erlotinib 0.102 | [1] 0.023 | [2] 0.151 | [3] -0.126 | [5] -0.071 | [6] -0.133 | [7] -0.117 | [8] 0.101 | IRAK-1-4 Inhibitor I 0.006

TEX2 isoform 2 (UniProt Q8IWB9)
inactive: erlotinib -0.065 | [1] -0.327 | [2] 0.095 | [3] 0.09 | [4] -0.063 | [5] 0.141 | [6] -0.033 | [7] -0.018 | [8] 0.088 | IRAK-1-4 Inhibitor I -0.046

TASOR (UniProt Q9UK61)
inactive: erlotinib 0.076 | [1] -0.04 | [2] -0.015 | [3] 0.021 | [6] 0.005 | [7] -0.047 | [8] 0.024

TFDP2 (UniProt Q14188)
inactive: erlotinib 0.066 | [1] -0.062 | [2] -0.02 | [3] 0.06 | [4] -0.153 | [5] 0.265 | [6] -0.05 | IRAK-1-4 Inhibitor I 0.091

TEPSIN, A0A1B0GV70
inactive: erlotinib 0.025 | [1] 0.206 | [2] -0.094 | [3] 0.122 | [4] -0.017 | [5] 0.117 | [6] 0.076 | [7] -0.099 | [8] 0.087 | IRAK-1-4 Inhibitor I 0.029

TBL2 (UniProt Q9Y4P3)
inactive: erlotinib -0.019 | [1] 0.061 | [2] -0.027 | [3] 0.061 | [4] -0.023 | [5] 0.038 | [6] -0.06 | [7] -0.027 | [8] 0.001 | IRAK-1-4 Inhibitor I -0.022

TANGO2 isoform 4 (UniProt Q6ICL3)
inactive: erlotinib 0.014 | [1] -0.067 | [2] 0.011 | [3] -0.044 | [4] 0.008 | [5] 0 | [6] 0.028 | [7] -0.001 | [8] 0 | IRAK-1-4 Inhibitor I 0.031

TELO2 (UniProt Q9Y4R8)
inactive: erlotinib 0.023 | [1] 0.006 | [2] -0.035 | [3] 0.025 | [4] 0.048 | [5] 0 | [6] 0.011 | [7] -0.031 | [8] 0.002 | IRAK-1-4 Inhibitor I 0.009

TBC1D17 (UniProt Q9HA65)
inactive: erlotinib 0 | [1] 0.026 | [2] 0.002 | [3] 0.109 | [4] -0.024 | [5] 0.006 | [6] -0.038 | [7] 0.004 | [8] -0.044 | IRAK-1-4 Inhibitor I 0.023

TAGLN3 (UniProt Q9UI15)
inactive: erlotinib -0.016 | [1] 0.036 | [2] 0.101 | [3] -0.064 | [6] -0.057 | [7] -0.023 | [8] 0.019

Fetched one by one from the entries so far (3):
TBL2 (UniProt Q9Y4P3)
inactive: erlotinib -0.019 | [1] 0.061 | [2] -0.027 | [3] 0.061 | [4] -0.023 | [5] 0.038 | [6] -0.06 | [7] -0.027 | [8] 0.001 | IRAK-1-4 Inhibitor I -0.022

TAGLN3 (UniProt Q9UI15)
inactive: erlotinib -0.016 | [1] 0.036 | [2] 0.101 | [3] -0.064 | [6] -0.057 | [7] -0.023 | [8] 0.019

TBC1D17 (UniProt Q9HA65)
inactive: erlotinib 0 | [1] 0.026 | [2] 0.002 | [3] 0.109 | [4] -0.024 | [5] 0.006 | [6] -0.038 | [7] 0.004 | [8] -0.044 | IRAK-1-4 Inhibitor I 0.023

Next part:

TCEA1 (UniProt P23193)
inactive: erlotinib -0.023 | [1] 0.016 | [2] 0.032 | [3] -0.007 | [4] -0.018 | [5] 0.015 | [6] 0.043 | [7] 0.028 | [8] -0.017 | IRAK-1-4 Inhibitor I -0.017

TARSL2 (UniProt A2RTX5)
inactive: erlotinib -0.018 | [1] -0.056 | [2] 0.029 | [3] 0.028 | [4] -0.008 | [5] -0.004 | [6] -0.027 | [7] -0.007 | [8] 0.012 | IRAK-1-4 Inhibitor I -0.002

TBC1D22A (UniProt Q8WUA7)
inactive: erlotinib -0.028 | [1] 0.023 | [2] -0.068 | [3] -0.005 | [4] -0.017 | [5] 0.002 | [6] 0.016 | [7] -0.019 | [8] -0.034 | IRAK-1-4 Inhibitor I -0.023

TBC1D12 (UniProt O60347)
inactive: erlotinib 0.052 | [1] 0.071 | [2] 0.037 | [3] -0.044 | [5] 0.053 | [6] -0.079 | [7] -0.155 | [8] 0.127 | IRAK-1-4 Inhibitor I 0.047

TEFM (UniProt Q96QE5)
inactive: erlotinib 0.064 | [1] -0.029 | [2] 0.069 | [3] -0.126 | [5] -0.035 | [6] 0.071 | [7] 0.163 | [8] -0.026 | IRAK-1-4 Inhibitor I 0.033

TCOF1 isoform 3 (UniProt Q13428)
inactive: erlotinib -0.067 | [2] -0.058 | [4] 0.01

TCEAL9 (UniProt Q9UHQ7)
inactive: [1] -0.16 | [3] -0.027 | [6] 0.032

TBC1D10A (UniProt Q9BXI6)
inactive: erlotinib -0.004 | [2] -0.071 | [4] -0.06 | [5] 0.01 | IRAK-1-4 Inhibitor I -0.014

TEDC1 (UniProt Q86SX3)
inactive: erlotinib 0.05 | [2] 0.057 | [5] 0.05 | [7] -0.127 | [8] -0.048 | IRAK-1-4 Inhibitor I -0.06
